These are yes or no findings as the source states them, for the method shown. For some assays here: Binding seen in cells or lysates may run through a third protein. Some binding calls cover weakened binding; strength is not graded here. For some assays here: Sequences can lack the tags named with a protein.

Protein sequences, listed by entry. Tags and fused reporters are not part of them.
UniProt Q02156: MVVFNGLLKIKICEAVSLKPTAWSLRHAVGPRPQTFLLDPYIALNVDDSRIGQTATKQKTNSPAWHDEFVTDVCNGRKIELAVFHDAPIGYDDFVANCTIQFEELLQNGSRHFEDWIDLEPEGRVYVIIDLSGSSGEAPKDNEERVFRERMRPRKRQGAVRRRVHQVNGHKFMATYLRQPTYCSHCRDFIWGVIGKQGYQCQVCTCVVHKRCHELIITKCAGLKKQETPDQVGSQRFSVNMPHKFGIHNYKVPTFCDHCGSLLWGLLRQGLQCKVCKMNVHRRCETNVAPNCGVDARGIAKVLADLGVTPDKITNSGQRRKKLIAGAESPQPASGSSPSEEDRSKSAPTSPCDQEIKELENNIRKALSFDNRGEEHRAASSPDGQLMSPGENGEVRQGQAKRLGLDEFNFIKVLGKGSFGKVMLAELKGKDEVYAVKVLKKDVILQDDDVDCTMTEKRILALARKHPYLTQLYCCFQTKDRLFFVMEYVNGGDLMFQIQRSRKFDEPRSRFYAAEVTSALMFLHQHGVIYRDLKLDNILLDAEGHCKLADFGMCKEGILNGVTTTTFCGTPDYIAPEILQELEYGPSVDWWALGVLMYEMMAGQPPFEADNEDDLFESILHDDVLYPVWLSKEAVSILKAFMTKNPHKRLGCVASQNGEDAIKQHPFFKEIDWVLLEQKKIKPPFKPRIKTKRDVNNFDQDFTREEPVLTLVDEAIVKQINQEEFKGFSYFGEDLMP

Experimental findings from patent US20150073033A1, “BIOMARKERS FOR CANCER CHARACTERIZATION AND TREATMENT” (Board of Regents, The University of Texas System, priority 2011, published 2015) are described below.

The target of experiment [1] is endogenous PKCε (U87/EGFR or U251 cells) (human) (UniProt Q02156). Put plainly: IP of PKCε, anti-IKKβ immunoblot, U87/EGFR or U251 cells.
The target of the next experiment is purified active GST-PKCε (UniProt Q02156). Put plainly: His pull-down on nickel agarose beads, purified proteins.

B1: endogenous IKKβ (U87/EGFR or U251 cells) (enzyme, human, UniProt O14920 1-756, looked up)
chain: MSWSPSLTTQTCGAWEMKERLGTGGFGNVIRWHNQETGEQIAIKQCRQELSPRNRERWCLEIQIMRRLTHPNVVAARDVPEGMQNLAPNDLPLLAMEYCQGGDLRKYLNQFENCCGLREGAILTLLSDIASALRYLHENRIIHRDLKPENIVLQQGEQRLIHKIIDLGYAKELDQGSLCTSFVGTLQYLAPELLEQQKYTVTVDYWSFGTLAFECITGFRPFLPNWQPVQWHSKVRQKSEVDIVVSEDLNGTVKFSSSLPYPNNLNSVLAERLEKWLQLMLMWHPRQRGTDPTYGPNGCFKALDDILNLKLVHILNMVTGTIHTYPVTEDESLQSLKARIQQDTGIPEEDQELLQEAGLALIPDKPATQCISDGKLNEGHTLDMDLVFLFDNSKITYETQISPRPQPESVSCILQEPKRNLAFFQLRKVWGQVWHSIQTLKEDCNRLQQGQRAAMMNLLRNNSCLSKMKNSMASMSQQLKAKLDFFKTSIQIDLEKYSEQTEFGITSDKLLLAWREMEQAVELCGRENEVKLLVERMMALQTDIVDLQRSPMGRKQGGTLDDLEEQARELYRRLREKPRDQRTEGDSQEMVRLLLQAIQSFEKKVRVIYTQLSKTVVCKQKALELLPKVEEVVSLMNEDEKTVVRLQEKRQKELWNLLKIACSKVRGPVSGSPDSMNASRLSQPGQLMSQPSTASNSLPEPAKKSEELVAEAHNLCTLLENAIQDTVREQDQSFTALDWSWLQTEEEEHSCLEQAS
B1: the binding entry in experiment [1] is “binds”.

B2: bacterially purified His-IKKβ (enzyme, human, UniProt O14920 1-756, looked up, not shown: small tags and cut ends)
chain: B1 chain
Regarding B2, in the experiment with purified active GST-PKCε, the binding result is “binds”.
